The entries are a selection whose mix differs from that of the whole data set.

Protein sequences, listed by entry. Tags and fused reporters are not part of them. Lines headed by an entry give the natural chain unless they say otherwise; changes in a name come on top.
UniProt Q92785, whole entry, looked up: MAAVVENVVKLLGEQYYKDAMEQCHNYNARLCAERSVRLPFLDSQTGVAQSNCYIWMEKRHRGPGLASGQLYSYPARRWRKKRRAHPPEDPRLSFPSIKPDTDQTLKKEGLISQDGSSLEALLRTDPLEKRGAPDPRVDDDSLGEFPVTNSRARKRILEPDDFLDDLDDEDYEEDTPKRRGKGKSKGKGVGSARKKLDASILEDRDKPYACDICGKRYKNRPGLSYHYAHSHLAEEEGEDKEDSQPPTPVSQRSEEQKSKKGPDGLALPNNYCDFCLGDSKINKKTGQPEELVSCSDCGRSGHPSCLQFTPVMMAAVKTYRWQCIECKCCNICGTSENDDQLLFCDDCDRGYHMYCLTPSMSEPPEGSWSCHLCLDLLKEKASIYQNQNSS
UniProt Q96GY3: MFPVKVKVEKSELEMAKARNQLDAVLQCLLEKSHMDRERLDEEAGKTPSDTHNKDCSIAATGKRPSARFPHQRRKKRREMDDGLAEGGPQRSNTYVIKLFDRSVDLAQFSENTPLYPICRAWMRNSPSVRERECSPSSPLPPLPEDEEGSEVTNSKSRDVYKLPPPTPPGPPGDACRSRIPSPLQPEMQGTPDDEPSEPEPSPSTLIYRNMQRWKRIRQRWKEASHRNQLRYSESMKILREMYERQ
UniProt Q92667: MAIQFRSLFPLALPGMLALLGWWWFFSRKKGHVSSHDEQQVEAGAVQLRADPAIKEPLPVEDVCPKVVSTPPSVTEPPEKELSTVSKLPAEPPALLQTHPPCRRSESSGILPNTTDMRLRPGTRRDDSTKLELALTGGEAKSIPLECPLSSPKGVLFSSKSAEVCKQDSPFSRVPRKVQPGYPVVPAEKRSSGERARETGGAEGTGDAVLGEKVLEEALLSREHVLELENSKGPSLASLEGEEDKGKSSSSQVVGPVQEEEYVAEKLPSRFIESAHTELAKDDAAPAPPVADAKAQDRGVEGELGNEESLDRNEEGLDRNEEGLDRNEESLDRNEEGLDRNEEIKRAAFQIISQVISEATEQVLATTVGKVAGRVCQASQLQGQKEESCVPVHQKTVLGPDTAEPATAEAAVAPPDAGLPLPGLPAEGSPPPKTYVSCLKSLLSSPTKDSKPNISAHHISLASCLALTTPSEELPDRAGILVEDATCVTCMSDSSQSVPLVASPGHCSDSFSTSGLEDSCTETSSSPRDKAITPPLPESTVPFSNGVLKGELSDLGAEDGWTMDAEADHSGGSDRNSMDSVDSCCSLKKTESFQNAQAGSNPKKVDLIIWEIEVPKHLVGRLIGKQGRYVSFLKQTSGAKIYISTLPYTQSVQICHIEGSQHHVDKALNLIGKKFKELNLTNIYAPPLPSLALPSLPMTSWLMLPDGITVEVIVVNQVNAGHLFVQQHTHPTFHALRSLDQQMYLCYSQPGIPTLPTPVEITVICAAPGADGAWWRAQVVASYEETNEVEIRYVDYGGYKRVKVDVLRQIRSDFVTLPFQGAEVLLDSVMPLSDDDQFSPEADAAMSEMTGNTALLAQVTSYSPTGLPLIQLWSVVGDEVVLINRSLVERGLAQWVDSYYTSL
UniProt Q96HA1, whole entry, looked up: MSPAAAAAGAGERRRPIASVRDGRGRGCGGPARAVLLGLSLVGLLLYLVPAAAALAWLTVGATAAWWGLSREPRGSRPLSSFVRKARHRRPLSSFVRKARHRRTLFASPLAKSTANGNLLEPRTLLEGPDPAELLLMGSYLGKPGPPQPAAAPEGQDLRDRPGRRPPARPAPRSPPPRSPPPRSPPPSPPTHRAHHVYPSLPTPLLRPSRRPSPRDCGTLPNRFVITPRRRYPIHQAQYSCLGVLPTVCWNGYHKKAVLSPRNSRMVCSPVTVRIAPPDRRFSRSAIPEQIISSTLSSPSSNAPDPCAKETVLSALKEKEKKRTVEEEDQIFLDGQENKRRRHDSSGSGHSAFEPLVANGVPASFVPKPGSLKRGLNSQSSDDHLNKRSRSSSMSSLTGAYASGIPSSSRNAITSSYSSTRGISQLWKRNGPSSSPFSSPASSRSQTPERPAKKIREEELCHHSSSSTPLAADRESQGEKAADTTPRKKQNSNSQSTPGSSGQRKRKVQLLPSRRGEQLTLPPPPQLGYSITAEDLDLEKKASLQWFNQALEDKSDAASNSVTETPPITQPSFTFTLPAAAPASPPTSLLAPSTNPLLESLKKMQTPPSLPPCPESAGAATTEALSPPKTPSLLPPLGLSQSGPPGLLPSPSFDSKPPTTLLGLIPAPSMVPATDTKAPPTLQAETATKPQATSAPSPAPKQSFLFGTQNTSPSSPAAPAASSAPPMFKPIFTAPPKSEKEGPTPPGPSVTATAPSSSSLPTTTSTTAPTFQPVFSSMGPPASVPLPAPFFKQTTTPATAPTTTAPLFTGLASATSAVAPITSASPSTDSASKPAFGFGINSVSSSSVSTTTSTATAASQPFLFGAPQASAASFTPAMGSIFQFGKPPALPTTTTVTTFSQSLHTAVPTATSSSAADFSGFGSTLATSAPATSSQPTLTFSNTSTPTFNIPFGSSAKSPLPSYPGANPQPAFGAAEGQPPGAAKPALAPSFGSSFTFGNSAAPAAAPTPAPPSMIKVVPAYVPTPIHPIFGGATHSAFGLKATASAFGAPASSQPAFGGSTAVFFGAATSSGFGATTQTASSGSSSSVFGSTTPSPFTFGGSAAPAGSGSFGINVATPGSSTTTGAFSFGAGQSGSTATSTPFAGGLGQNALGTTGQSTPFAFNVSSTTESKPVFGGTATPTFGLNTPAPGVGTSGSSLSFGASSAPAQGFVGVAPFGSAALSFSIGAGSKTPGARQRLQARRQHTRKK
UniProt Q96EK5: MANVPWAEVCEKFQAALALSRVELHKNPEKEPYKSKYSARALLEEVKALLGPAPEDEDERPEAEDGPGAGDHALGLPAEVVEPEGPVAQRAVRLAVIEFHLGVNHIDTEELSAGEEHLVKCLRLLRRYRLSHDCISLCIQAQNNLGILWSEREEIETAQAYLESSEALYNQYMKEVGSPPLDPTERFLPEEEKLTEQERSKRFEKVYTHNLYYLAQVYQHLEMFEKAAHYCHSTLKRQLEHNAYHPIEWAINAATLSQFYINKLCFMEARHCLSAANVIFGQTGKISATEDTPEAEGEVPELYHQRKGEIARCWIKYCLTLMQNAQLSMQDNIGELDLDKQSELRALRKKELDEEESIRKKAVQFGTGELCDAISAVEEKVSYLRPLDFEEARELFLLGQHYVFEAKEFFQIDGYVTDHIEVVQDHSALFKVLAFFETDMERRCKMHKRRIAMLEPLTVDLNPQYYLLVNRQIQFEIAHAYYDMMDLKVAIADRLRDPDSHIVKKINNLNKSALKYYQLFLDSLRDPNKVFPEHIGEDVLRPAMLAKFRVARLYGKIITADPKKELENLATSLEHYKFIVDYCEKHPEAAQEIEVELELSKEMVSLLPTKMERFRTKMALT
UniProt Q96C86: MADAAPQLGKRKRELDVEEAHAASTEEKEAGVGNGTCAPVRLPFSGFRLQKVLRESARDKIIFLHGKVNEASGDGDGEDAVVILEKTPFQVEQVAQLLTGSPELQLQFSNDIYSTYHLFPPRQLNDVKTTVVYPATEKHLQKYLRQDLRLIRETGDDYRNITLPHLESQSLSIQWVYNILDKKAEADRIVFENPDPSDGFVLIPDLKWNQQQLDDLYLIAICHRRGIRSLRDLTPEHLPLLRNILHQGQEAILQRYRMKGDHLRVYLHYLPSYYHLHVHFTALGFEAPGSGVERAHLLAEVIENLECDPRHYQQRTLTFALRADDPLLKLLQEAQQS
UniProt Q96B01: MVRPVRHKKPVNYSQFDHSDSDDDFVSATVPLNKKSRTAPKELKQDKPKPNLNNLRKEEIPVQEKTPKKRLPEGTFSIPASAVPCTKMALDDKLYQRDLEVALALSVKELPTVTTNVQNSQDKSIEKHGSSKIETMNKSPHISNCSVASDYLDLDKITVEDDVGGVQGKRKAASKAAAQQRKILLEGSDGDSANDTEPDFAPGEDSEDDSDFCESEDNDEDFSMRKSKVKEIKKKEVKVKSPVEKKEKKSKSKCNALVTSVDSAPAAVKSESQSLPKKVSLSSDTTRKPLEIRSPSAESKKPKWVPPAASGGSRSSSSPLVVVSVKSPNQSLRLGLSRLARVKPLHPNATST
UniProt Q96FK6: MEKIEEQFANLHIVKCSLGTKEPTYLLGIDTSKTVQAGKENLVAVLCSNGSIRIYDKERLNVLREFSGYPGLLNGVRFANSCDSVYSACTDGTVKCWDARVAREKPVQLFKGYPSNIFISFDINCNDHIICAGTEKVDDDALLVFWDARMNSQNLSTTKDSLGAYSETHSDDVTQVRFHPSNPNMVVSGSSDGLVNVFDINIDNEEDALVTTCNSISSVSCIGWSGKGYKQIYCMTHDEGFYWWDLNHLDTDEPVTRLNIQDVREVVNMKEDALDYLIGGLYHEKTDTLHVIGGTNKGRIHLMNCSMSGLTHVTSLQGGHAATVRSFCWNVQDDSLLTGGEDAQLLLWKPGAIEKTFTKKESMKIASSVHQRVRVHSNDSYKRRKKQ
UniProt Q96F86: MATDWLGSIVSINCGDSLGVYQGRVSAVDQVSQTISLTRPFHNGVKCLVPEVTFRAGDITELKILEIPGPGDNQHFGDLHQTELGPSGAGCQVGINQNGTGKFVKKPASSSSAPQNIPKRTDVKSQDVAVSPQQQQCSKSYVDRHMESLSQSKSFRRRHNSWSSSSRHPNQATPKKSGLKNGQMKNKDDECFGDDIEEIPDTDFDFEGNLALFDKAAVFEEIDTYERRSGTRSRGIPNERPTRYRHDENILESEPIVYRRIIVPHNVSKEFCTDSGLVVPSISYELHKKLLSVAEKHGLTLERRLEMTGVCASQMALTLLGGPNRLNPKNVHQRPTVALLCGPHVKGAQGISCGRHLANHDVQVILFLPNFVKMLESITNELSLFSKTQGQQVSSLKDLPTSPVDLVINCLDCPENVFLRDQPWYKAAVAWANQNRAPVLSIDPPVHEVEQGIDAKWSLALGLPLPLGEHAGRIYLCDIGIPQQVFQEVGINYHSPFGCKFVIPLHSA
UniProt Q96BR5: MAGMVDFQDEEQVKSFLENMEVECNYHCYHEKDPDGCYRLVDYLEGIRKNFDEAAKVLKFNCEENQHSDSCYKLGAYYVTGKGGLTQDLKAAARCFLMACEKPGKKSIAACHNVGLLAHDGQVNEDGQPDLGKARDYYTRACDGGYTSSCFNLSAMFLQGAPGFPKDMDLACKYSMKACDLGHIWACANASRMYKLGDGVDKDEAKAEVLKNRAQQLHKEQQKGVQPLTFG
UniProt Q96BH1: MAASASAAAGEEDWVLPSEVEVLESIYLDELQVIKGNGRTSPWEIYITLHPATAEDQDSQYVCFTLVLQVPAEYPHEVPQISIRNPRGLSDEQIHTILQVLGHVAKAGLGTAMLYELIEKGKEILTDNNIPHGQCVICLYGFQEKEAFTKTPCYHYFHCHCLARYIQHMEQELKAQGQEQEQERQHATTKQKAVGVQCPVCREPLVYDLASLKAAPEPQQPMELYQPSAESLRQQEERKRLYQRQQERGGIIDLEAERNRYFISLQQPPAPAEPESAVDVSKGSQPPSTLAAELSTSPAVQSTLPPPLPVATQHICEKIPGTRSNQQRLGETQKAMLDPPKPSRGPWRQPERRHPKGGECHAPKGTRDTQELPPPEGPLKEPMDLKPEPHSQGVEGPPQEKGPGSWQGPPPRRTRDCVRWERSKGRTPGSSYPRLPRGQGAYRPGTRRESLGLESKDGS
UniProt Q92973: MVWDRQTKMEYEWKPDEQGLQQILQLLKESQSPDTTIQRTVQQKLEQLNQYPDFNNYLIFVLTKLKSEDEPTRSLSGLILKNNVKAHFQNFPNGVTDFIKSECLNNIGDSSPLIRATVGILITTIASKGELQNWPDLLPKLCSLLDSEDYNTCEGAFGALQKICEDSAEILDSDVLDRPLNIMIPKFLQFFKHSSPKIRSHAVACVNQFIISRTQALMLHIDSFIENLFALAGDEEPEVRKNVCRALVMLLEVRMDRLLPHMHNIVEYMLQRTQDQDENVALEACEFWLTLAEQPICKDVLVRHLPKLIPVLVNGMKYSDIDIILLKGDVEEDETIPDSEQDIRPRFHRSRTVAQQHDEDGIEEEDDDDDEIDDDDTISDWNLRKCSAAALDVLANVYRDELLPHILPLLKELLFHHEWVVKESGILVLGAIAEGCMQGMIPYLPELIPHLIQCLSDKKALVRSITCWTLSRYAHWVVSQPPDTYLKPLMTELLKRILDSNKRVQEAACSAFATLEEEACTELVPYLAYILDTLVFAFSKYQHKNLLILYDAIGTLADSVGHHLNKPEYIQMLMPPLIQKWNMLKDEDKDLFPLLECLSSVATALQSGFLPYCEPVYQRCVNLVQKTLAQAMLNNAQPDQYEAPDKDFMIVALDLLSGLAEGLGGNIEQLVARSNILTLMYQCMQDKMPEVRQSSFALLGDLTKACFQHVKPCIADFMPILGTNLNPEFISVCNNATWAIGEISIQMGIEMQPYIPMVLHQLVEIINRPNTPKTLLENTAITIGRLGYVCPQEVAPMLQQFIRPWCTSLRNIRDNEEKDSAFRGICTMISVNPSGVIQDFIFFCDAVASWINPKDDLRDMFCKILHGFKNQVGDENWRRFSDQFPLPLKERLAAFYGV

Compound in the experiment: COC(=O)C#Cc1ccccc1 [methyl 3-phenylpropiolate]
In words: log2 ratio of iodoacetamide-alkyne labeling of the cysteine site, DMSO over compound (competition); higher = stronger covalent engagement of the cysteine by the compound, active = 1 or more. The note with it: 500 µM; treatment time 1 h; system: HEK293T cell lysate. In outline: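 HEK293T lysate (2 mg/mL) was incubated with electrophile (500 µM) or vehicle for 1 h at ambient temperature and then with iodoacetamide alkyne for 1 h. Labelled proteins were clicked to sCIP-TMT reagents, pooled, digested, enriched on streptavidin and measured by Orbitrap Eclipse LC-MS/MS with FAIMS, with FragPipe quantification. The per-cysteine log2 competition ratio is mean control-channel reporter intensity over mean compound-channel reporter intensity. Across three replicates with duplicate channels, cysteines quantified in only one replicate were excluded.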
Take UniProt Q92616_C1692: the “log2 ratio of iodoacetamide-alkyne labeling” value (“log2 ratio” for short) is inactive: 0.202. CLP1 C338 (UniProt Q92989): the “log2 ratio” value was inactive: 0.264. With DPF2 C374 (UniProt Q92785), the “log2 ratio” value was inactive: 0.269. With DCUN1D4 C253 (UniProt Q92564) the figure was inactive: 0.287. On to SNX19 C277 (UniProt Q92543), for which the “log2 ratio” value is inactive: 0.576. Consider UniProt Q96CS4_C70, for which the “log2 ratio” value was inactive: -0.0277. Consider UniProt Q92841_C447, for which the “log2 ratio” value was inactive: 0.0335. LIN37 C119 (UniProt Q96GY3): the “log2 ratio” value is inactive: 0.255. For LRRC59 C48 (UniProt Q96AG4), the “log2 ratio” value was inactive: 0.199. Then AKAP1 C389 (UniProt Q92667), with active: 1.15. For the target UniProt Q92888_C911, the “log2 ratio” value was inactive: 0.441. For the target UPF1 C683 (UniProt Q92900), the “log2 ratio” value is inactive: -0.0544.

Turning to TONSL C762 (UniProt Q96HA7), the “log2 ratio” value is inactive: 0.961. For the target AKAP1 C165 (UniProt Q92667), the “log2 ratio” value was inactive: 0.411. Regarding POM121 C217 (UniProt Q96HA1), the “log2 ratio” value is inactive: 0.605. Regarding UniProt Q92841_C247, the “log2 ratio” value was inactive: 0.0183. With UniProt Q92615_C654 the figure was inactive: 0.572; with UniProt Q96EK5_C371, inactive: 0.247; with DCPS C37 (UniProt Q96C86), inactive: 0.171. For the target NRBF2 C155 (UniProt Q96F24), the “log2 ratio” value is inactive: 0.664. In the case of RAD51AP1 C254 (UniProt Q96B01), the “log2 ratio” value was inactive: 0.775.

For the target NMD3 C214 (UniProt Q96D46), the “log2 ratio” value is inactive: -0.00458. UniProt Q92879_C62: the “log2 ratio” value is inactive: 0.05. In the case of UniProt Q92615_C590, the “log2 ratio” value was inactive: 0.305. Then WDR89 C82 (UniProt Q96FK6), with inactive: 0.231; and UniProt Q96EY5_C231, with inactive: 0.938; and GBF1 C1766 (UniProt Q92538), with inactive: 0.302.

In the case of MRPL53 C21 (UniProt Q96EL3), the “log2 ratio” value was inactive: 0.057. For EDC3 C410 (UniProt Q96F86), the “log2 ratio” value was inactive: 0.216. In the case of UniProt Q96GC9_C8, the “log2 ratio” value is inactive: 0.682. Regarding UniProt Q96BR5_C24, the “log2 ratio” value was inactive: -0.0575. Then Sirt1 C380 (UniProt Q96EB6), with inactive: 0.579; and UniProt Q92888_C537, with inactive: 0.793; and RNF25 C360 (UniProt Q96BH1), with active: 1.07. On to DPF2 C306 (UniProt Q92785), for which the “log2 ratio” value was inactive: -0.0956. As to PHF3 C627 (UniProt Q92576), the “log2 ratio” value was inactive: 0.687. Then TNPO1 C683 (UniProt Q92973), with inactive: 0.399.

These data come from the supplement of paper PMC11006884.
